Experimental data from article PMC8066076.
These are yes or no findings as the source states them, for the method shown. For part of these data: Binding seen in cells or lysates may run through a third protein. Some entries that bind do so weakly or less than the wild type. Where a sequence is shown, tags or fusion partners need not be part of it. Each block holds one binder with its values, some of them ahead of it.

Key:
[1] = molecular target: PIE1 C-terminal (492-2055 residues), nLuc fusion (Arabidopsis thaliana) (UniProt Q7X9V2); experiment: split reporter; split luciferase complementation imaging (LCI) in N. benthamiana leaves; AtARP4-cLuc and PIE1 fragment-nLuc co-infiltrated by Agrobacterium; luciferase activity imaged 48 h post-infiltration
[2] = molecular target: T1, PIE1 N-terminal (1-491 residues), nLuc fusion (Arabidopsis thaliana) (UniProt Q7X9V2); experiment: as above
T1 sequence: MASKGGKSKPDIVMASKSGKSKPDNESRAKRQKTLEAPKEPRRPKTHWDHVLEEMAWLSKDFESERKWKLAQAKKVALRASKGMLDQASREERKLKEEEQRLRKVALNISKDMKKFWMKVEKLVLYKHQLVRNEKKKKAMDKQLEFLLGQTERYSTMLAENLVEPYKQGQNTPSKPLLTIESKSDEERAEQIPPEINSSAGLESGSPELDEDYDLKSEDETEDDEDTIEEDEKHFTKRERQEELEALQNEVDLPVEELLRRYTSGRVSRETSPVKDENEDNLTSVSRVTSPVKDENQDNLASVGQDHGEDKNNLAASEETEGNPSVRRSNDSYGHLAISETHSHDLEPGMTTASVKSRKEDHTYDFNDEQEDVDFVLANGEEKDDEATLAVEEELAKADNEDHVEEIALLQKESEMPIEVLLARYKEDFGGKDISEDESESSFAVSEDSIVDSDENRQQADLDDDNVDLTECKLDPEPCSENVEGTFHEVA

[3] = molecular target: T2, PIE1-N terminal fragment, yeast two-hybrid fusion (Arabidopsis thaliana) (UniProt Q7X9V2); experiment: two-hybrid; yeast two-hybrid in S. cerevisiae AH109; pGADT7-AD and pGBKT7-BD fusions; growth on SD-Leu/Trp/His with 1 mM 3'AT, 30 °C, 3 d
T2 sequence: T1 sequence

binding [1]: no binding
binding [2]: binds
B1: Arabidopsis thaliana actin-related protein 4 (AtARP4), cLuc fusion (protein, UniProt Q84M92 1-441)
chain: MYGGDEVSAIVVDLGSHTCKAGYAGEDAPKAVFPSVIGAVDGVEAMDVDVDSTKTNSNSEDSKTESEKEKSKRKLYVGSQAMSYRRDHMEVLSPIKDGIVSDWDLVDNIWEHAFKSCLMIDPTEHPMLLAEPPLNTQQQREKAAELMFEKYKVPALFMAKNPVLTSFATGRATSLVVDCGGGSTTISPVHDGYVLQKAVVSSPLGGEFLTDCLLKSLESKGIKIRPRYSFKRKEVRAGEFQVEDVDIPDTTESYKLFCQRMIVGDIKDSICRVPDTPYDDKSYSNIPTTSYELPDGQTLEIGADRFKVPDVMFNPSIVQTIPGMEKYAEMIPSVRGLPHMVMESINKCDVDIRRELYSSILLAGGTSSMQQLKERLEKDLIEESPHSARVKVLASGNTTERRFSVWIGGSILASLGSFQQMWFSKSEYEEHGASYIQRKCP

binding [3]: binds
B2: AtARP4, full-length, yeast two-hybrid fusion (protein, UniProt Q84M92 1-441)
chain: B1 chain
